From patent US20190367617A1
Results are given in words; binding and its absence hold for the method and conditions named. Some entries that bind do so weakly or less than the wild type.

The chains behind the UniProt entries cited, without tags or fusion partners. Where a name states a change or a piece, a line headed by the entry shows the natural chain unless it says otherwise.
UniProt Q15116: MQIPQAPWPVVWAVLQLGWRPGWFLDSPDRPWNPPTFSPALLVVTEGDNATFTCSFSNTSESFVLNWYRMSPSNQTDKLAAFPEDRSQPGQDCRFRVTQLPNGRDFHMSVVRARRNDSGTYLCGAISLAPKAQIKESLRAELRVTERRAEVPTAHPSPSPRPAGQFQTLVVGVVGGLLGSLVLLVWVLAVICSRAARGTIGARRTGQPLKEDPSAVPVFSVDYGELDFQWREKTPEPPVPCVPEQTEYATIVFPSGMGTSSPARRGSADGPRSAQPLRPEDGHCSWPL

Legend:
[1] = target: PD-1 overexpressed on the surface of CHO cells (Homo sapiens (Human)) (UniProt Q15116); assay: flow cytometry on PD-1-overexpressing CHO cells (figure legend)
[2] = target: PD-1 overexpressed on the surface of CHO cells (Homo sapiens (Human)) (UniProt Q15116); assay: flow cytometry on PD-1-overexpressing CHO cells, FITC anti-human IgG
[3] = target: PD-1 overexpressed on the surface of CHO cells (Homo sapiens (Human)) (UniProt Q15116); assay: flow cytometry on PD-1-overexpressing CHO cells, FITC goat anti-human IgG

Measured: binding

B1: humanized antibody AB12M3 (antibody, V domains shown)
VH: EVQLVESGGGLVQPGGSLRLSCAASGFTFSSYGMSWVRQAPGKGLEWVATISGGGRDTYYPDSVKGRFTISRDNAKNNLYLQMNSLRAEDTALYYCARQKDTSWFVHWGQGTLVTVSS
VL: EIVLTQSPATLSLSPGERATLSCRASESVDDYGISFMNWFQQKPGQAPKLLIYVASNQGSGVPARFSGSGSGTDFSLTISSLEPDDTAMYFCQQSKEVPWTFGGGTKVEIK
binds: all assays above
